This note sets out measurements from article PMC12040169 (PLOS Biology, 2025).

The other results are listed elsewhere or left out.

The assay deals with T1, CTL2-GFP (C. trachomatis L2/434/Bu, GFP-expressing).
T1 construct: L2/434/Bu, GFP-expressing
Further details: species or system HeLa; Intracellular C. trachomatis growth in HeLa cells, bulk GFP fluorescence relative to DMSO. Particulars: bulk GFP, single well; 28.5 h, 10 µM; inhibitor.
Turning to `CCn1nc(NC(=O)CCn2c(C(F)F)cc3cccnc32)cc1C` [CBK285072], the “% of control remaining” value is reported as 125.548%.

As for `c1ncc(N2CCCC2)nc1OCCN1CCOCC1` [CBK113430], the “% of control remaining” value was found to be 159.091%.

`O=C(Nc1cccc(O)c1)c1ccc(NC(=O)C2CCCO2)cc1` (stereo not shown) [CBK269746]: the “% of control remaining” value came to 129.953%.

Take `Cc1ccc(Cc2cnc(NC(=O)NCCN3CCOCC3)s2)cc1F` [CBK305449]: the “% of control remaining” value came to 107.698%.

For the compound `Cc1ccc2nc(-c3ccc(N4C(=O)CC(N5CCN(CCOCCO)CC5)C4=O)cc3)sc2c1` (stereo not shown) [CBK265362], the “% of control remaining” value stood at 106.856%.

For the compound `COc1cc(C2c3c(-c4cc(C)c(C)cc4O)n[nH]c3C(=O)N2CCO)cc(Br)c1O` (stereo not shown) [CBK269009], the “% of control remaining” value worked out at 81.7753%.

As for `COCc1ccsc1C(=O)Nc1ncn(CC(=O)N2CCCCCC2)n1` [CBK304160], the “% of control remaining” value amounted to 119.688%.

With `CCCC/C=C/c1cncc(N2CCCC2CO)n1` (stereo not shown) [CBK065402], the “% of control remaining” value came out at 169.276%.

For `Cc1nc(C2CCN(C(=O)c3ccn(C)n3)CC2)c2sccn12` [CBK285202], the “% of control remaining” value stood at 101.372%.

Consider `CCN1CCN(Cc2cnc(-c3ccccn3)nc2)CC1=O` [CBK306678], for which the “% of control remaining” value was found to be 98.9535%.

Regarding `COc1cccc(CC(=O)NCC(c2cccs2)N2CCOCC2)c1` (stereo not shown) [CBK305621], the “% of control remaining” value is 120.657%.

For the compound `COc1cccc(Cn2c(=O)c3sccc3n(CC(=O)NCc3ccc(C)cc3)c2=O)c1` [CBK300533], the “% of control remaining” value is given as 126.424%.

In the case of `Cc1ccc(-c2nc(C)c(C(=O)NCc3ccnc(-n4ccnc4)c3)s2)o1` [CBK298322], the “% of control remaining” value is 130.13%.

Consider `Cc1c(C(=O)NCCCCn2ccnc2)oc2c(C)cccc12` [CBK283315], for which the “% of control remaining” value was 75.3794%.

As to `O=[N+]([O-])c1cc(S(=O)(=O)Nc2ccc3[nH]ncc3c2)ccc1Cl` [CBK062537], the “% of control remaining” value was determined as 96.6901%.

For the compound `C=CCc1ccc(OCC(=O)NN)c(OC)c1` [CBK261831], the “% of control remaining” value worked out at 117.705%.

Turning to `Cc1noc(C)c1S(=O)(=O)NC1CCN(Cc2ccccc2)CC1` [CBK062028], the “% of control remaining” value turned out to be 142.949%.

As for `O=C(NCCCc1ccccn1)c1cc(-c2cccs2)no1` [CBK282652], the “% of control remaining” value is given as 104.859%.

Take `Cc1cc(=O)[nH]c(SCCC(=O)O)n1` [CBK268242]: the “% of control remaining” value is 106.923%.

In the case of `O=S(=O)(c1ccc(OC(F)(F)F)cc1)N1CCc2ccccc21` [CBK044279], the “% of control remaining” value turned out to be 67.1721%.

Take `Cc1oc(C(=O)Nc2cccc(CCc3ccncc3)c2)cc1CN1CCOCC1` [CBK285547]: the “% of control remaining” value is 150.299%.

As for `COc1ccc(-n2cc(-c3ccc(F)cc3)nn2)cc1` [CBK113111], the “% of control remaining” value worked out at 69.4882%.

On to `C=CCN1C(=O)C2(CC(=O)N(CC)C2=O)c2cc(F)ccc21` (stereo not shown) [CBK075318], for which the “% of control remaining” value worked out at 99.1624%.

As for `COc1ccccc1NC(=O)c1ccc(OC(C)C(=O)O)cc1` (stereo not shown) [CBK266109], the “% of control remaining” value stood at 160.391%.

With `Ic1ccc2ncnc(NCCN3CCOCC3)c2c1` [CBK265655], the “% of control remaining” value was 107.609%.

With `CCCS(=O)(=O)N1CCN(C(=O)COc2ccc3ccccc3c2)CC1` [CBK264290], the “% of control remaining” value came to 99.1674%.

In the case of `COc1cccc(CCNC(=O)NC(=O)C2CCN(S(C)(=O)=O)CC2)c1` [CBK034860], the “% of control remaining” value is listed as 154.2%.

Regarding `CCOc1c(CNCCN2CCOCC2)cccc1OC` [CBK278182C], the “% of control remaining” value was determined as 145.436%.

On to `Cc1cccc(-n2c(N)cc(=O)nc2SC(C)C(=O)Nc2ccc(S(N)(=O)=O)cc2)c1` (stereo not shown) [CBK266173], for which the “% of control remaining” value was 152.172%.

Consider `O=C1Cc2cc3ccccc3cc2C2(CCN(C(=O)c3ccccc3C(=O)O)CC2)N1` [CBK047216], for which the “% of control remaining” value came to 120.453%.

With `O=C(O)C1CCCCC1C(=O)N1CCN(Cc2cccc3ccccc23)CC1` (stereo not shown) [CBK270293], the “% of control remaining” value came to 143.107%.

Regarding `Cc1ccc(NS(=O)(=O)c2ccc(CCC(=O)N3CCc4ccccc4C3)cc2)cc1` [CBK267616], the “% of control remaining” value was determined as 103.829%.

As for `Cc1nn(C)c(C)c1CC(=O)Nc1nc(C(C)(C)C)cs1` [CBK250992], the “% of control remaining” value was found to be 83.0956%.

Regarding `O=C(Nc1ccc(=O)n2c1[C@@H]1C[C@@H](CN(C(=O)c3ccc(F)cc3)C1)C2)c1cncnc1` [CBK288713], the “% of control remaining” value was determined as 124.206%.

`Cc1nn(C)c(C)c1CC(=O)NC1CCN(c2c(F)cccc2F)C1` (stereo not shown) [CBK306307]: the “% of control remaining” value is 89.2994%.

As for `CNC(=O)c1ccc(-c2ccc(CNC(=O)C(C)Oc3ccc(C)c(C)c3)cc2)nc1C` (stereo not shown) [CBK286014], the “% of control remaining” value was 112.937%.

With `Cn1c(N)nc2c(ncn2[C@H]2C[C@@H](O)[C@@H](CO)O2)c1=O` [CBK201215], the “% of control remaining” value stood at 125.612%.

Regarding `C#C[C@H]1C[N@@]2CC[C@H]1C[C@@H]2CNS(=O)(=O)c1cccc(C#N)c1` [CBK288753], the “% of control remaining” value is on record as 116.08%.

Take `CS(=O)(=O)N(CC(=O)NCc1ccccn1)c1cc(Cl)cc(Cl)c1` [CBK266459]: the “% of control remaining” value is on record as 143.817%.

Take `COc1ccc([C@@]23CC[C@@H](NC(=O)Nc4cccc(-c5nn[nH]n5)c4)C[C@@H]2N(C)CC3)cc1OC` [CBK051273T]: the “% of control remaining” value is given as 105.15%.

In the case of `CCOC(=O)c1sc(NC(=O)c2ccccc2Br)nc1C` [CBK067745], the “% of control remaining” value came to 109.821%.

As for `CCc1ccc2[nH]c(=O)c(CN(CCN(C)C)C(=S)NCc3ccccc3)cc2c1` [CBK134905], the “% of control remaining” value is reported as 111.293%.

`c1ccc2c(CCN3CCC(Oc4nccnc4OCCN4CCOCC4)CC3)c[nH]c2c1` [CBK082939T]: the “% of control remaining” value amounted to 127.001%.

Consider `COc1nc(OC)nc(Sc2ccc(N)cc2)n1` [CBK019319], for which the “% of control remaining” value came out at 126.854%.

For the compound `COCCNC(=O)CC1Sc2ccccc2NC1=O` (stereo not shown) [CBK268443], the “% of control remaining” value is reported as 115.427%.

For `CCC(=O)NC(=S)Nc1cccc(NC(=O)c2cccc(Cl)c2)c1` [CBK058759], the “% of control remaining” value is listed as 100%.

On to `COc1cccc(C2C(C(=O)c3ccc(Cl)cc3)=C(O)C(=O)N2CCN2CCOCC2)c1` (stereo not shown) [CBK264901], for which the “% of control remaining” value came out at 91.1941%.

As for `O=S(=O)(c1ccccc1)n1c(CO)cc2c(C(F)(F)F)cc(CN3CCNCC3)cc21` [CBK143799], the “% of control remaining” value is 115.013%.

Consider `O=C(O)CNC(=O)/C(=C\c1ccccc1F)NC(=O)c1ccccc1` [CBK263961], for which the “% of control remaining” value was 112.648%.

Regarding `Cc1ccc(CCC(=O)N(CCC#N)C2CCOCC2)c(C)c1` [CBK305809], the “% of control remaining” value is reported as 106.828%.

Consider `COc1ncc(-c2cc(N3CCN(c4ccccn4)CC3)ncn2)c(OC)n1` [CBK037707], for which the “% of control remaining” value is 208.442%.

In the case of `COC(=O)c1ccc(-c2ccc(Cl)c(Cl)c2)nc1` [CBK149231], the “% of control remaining” value was found to be 150.016%.

Regarding `CCn1cc(C(C)NC(=S)Nc2ccc(OC)cc2OC)c(C)n1` (stereo not shown) [CBK266950], the “% of control remaining” value came to 149.802%.

Consider `CN1CCN(C(=O)CCn2c(C(F)F)cc3cccnc32)CC1` [CBK285023], for which the “% of control remaining” value came to 112.522%.

With `O=C(NC/C=C/c1cn(C2CC(O)C(CO)O2)c(=O)[nH]c1=O)C(F)(F)F` (stereo not shown) [CBK201249], the “% of control remaining” value was found to be 104.156%.

Take `Cc1cnn(C2CCCN(C(=O)CC3C(=O)Nc4ccccc43)C2)c1` (stereo not shown) [CBK304930]: the “% of control remaining” value turned out to be 63.4735%.

As for `COc1ccc(N2C(=O)CC(NCCNc3ccc([N+](=O)[O-])cn3)C2=O)cc1` (stereo not shown) [CBK263593], the “% of control remaining” value was 126.568%.

In the case of `CCN1CCN(c2ccc(NC(=O)c3ccc([N+](=O)[O-])c(C)c3)cc2)CC1` [CBK266503], the “% of control remaining” value is given as 193.155%.

Regarding `O=C(NNC(=O)c1ccccc1C(=O)O)c1cccc(Cl)c1` [CBK261658], the “% of control remaining” value worked out at 100%.

As to `COc1ccccc1CNCCCN1CCOCC1` [CBK278310C], the “% of control remaining” value stood at 178.471%.

As for `COC(=O)c1ccsc1NS(=O)(=O)c1ccc(Br)cc1` [CBK039058], the “% of control remaining” value was 156.004%.

As to `CN(C)Cc1ccc(C(=O)NCC(C)(C)N2CCCCC2)cc1` [CBK281865], the “% of control remaining” value came to 107.748%.

Regarding `O=C(CN(c1ccccc1)S(=O)(=O)c1ccccc1[N+](=O)[O-])NC1CCCCC1` [CBK262328], the “% of control remaining” value is 101.134%.

Take `Cn1cc(CCC(=O)NC(Cc2ccncc2)[C@H]2C[C@H](O)C2)cn1` (stereo partly shown) [CBK307292]: the “% of control remaining” value turned out to be 120.046%.

For the compound `NS(=O)(=O)c1ccc(Nc2nc(-c3ccccc3)c(CC(=O)O)s2)cc1` [CBK131899], the “% of control remaining” value worked out at 88.2647%.

In the case of `NC(=O)CCN1CCCC2(CCN(C(=O)c3ccoc3)C2)C1` (stereo not shown) [CBK132816], the “% of control remaining” value amounted to 90.3901%.

For the compound `CC(=O)N1CCc2cc(-c3cc4ccccn4c3)ccc21` [CBK285224], the “% of control remaining” value is reported as 122.314%.

On to `O=S(=O)(Nc1cccnc1)N1CCOCC1` [CBK269362], for which the “% of control remaining” value is reported as 119.88%.

With `CCOC(=O)c1cnn2c(O)cc(CN3CCCCC3)nc12` [CBK305585], the “% of control remaining” value is recorded as 133.137%.

In the case of `CN(C)CCN(C)c1cncc(-c2cccc(N)c2)n1` [CBK065270], the “% of control remaining” value came to 189.313%.

As to `CCCc1ccc(C(C)NC(=O)C2CC2C)cc1` (stereo not shown) [CBK057847], the “% of control remaining” value is reported as 89.424%.

As to `CCC(CN1CCN(C)CC1)NC(=O)Cc1ccc2c(c1)CCC2` (stereo not shown) [CBK282784], the “% of control remaining” value is reported as 106.906%.

Regarding `Cc1cc(O)cc(C2CCCN(C(=O)c3ccc(F)c(F)c3)C2)n1` (stereo not shown) [CBK283406], the “% of control remaining” value was found to be 107.404%.

With `O=C(c1ccc2ncccc2c1)N1CCN(Cc2ccccc2)CC1` [CBK200175], the “% of control remaining” value turned out to be 133.741%.

Regarding `CCCCN(C(C)=O)c1c(CC)nc2ccc(C(=O)N(C)CCN(C)C)cn12` [CBK145739], the “% of control remaining” value was found to be 118.427%.

For the compound `C[S+]([O-])c1sc(Cl)c2c1C(=O)CCC2` (stereo not shown) [CBK005657], the “% of control remaining” value was 103.562%.

As to `COc1ccc(N2C(=S)N(CC3CCCCC3)[C@H]3[C@H]4OC(=O)[C@H](C[C@H]4O)[C@H]32)cc1` [CBK288939], the “% of control remaining” value is 102.837%.

On to `CCn1c2ccccc2c2cc(CN(C)Cc3ccccc3)ccc21` [CBK261901], for which the “% of control remaining” value turned out to be 99.0279%.

Regarding `COc1cccc(OC)c1-c1cn2ccnc2c(N[C@H](CO)C(C)C)n1` [CBK036586], the “% of control remaining” value is given as 86.9045%.
